Results reported in patent US20220259330A1.
These are yes or no findings as the source states them, for the method shown. Some results given as binding are weak or reduced against the parent protein; the word gives no strength.

The chains behind the UniProt entries cited, without tags or fusion partners. Where a name states a change or a piece, a line headed by the entry shows the natural chain unless it says otherwise. Residues count along the entry.
UniProt P01137, residues 279-390: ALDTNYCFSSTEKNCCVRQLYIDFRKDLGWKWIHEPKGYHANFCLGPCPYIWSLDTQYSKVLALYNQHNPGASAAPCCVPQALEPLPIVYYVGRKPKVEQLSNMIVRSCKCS
UniProt Q15116, residues 25-170: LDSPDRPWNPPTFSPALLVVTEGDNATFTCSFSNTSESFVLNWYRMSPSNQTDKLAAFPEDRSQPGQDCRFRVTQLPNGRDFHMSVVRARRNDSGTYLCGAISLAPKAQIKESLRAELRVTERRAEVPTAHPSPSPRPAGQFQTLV

Columns and labels:
[1] = biological target: TGF-β1 (Sino Biological, Cat. No. 10804-HNAC) (UniProt P01137); assay: ELISA, TGF-β1 coated at 5 ng/well
[2] = biological target: biotinylated human PD-1 extracellular recombinant protein (Sino Biological, Cat. No. 10377-H08H-B) (human) (UniProt Q15116); assay: condition: about 100 nM (last point at log(nM) about 2); bridging ELISA: LAG3-ECD-His coated, antibody titrated, biotinylated human PD-1 and streptavidin-HRP for detection

Binder	binding [1]	binding [2]
mAb127 (antibody, human IgG4 S228P, kappa, V domains shown) VH: QVQLVQSGAEVKKPGASVKVSCKASGYTFTSEWMNWVRQAPGQGLEWMGQIFPALGSTNYNEMYEGRVTMTTDTSTSTAYMELRSLRSDDTAVYYCARGIGNYALDAMDYWGQGTLVTVSS VL: DIQMTQSPSSLSASVGDRVTITCRASESVDFYGNSFMHWYQQKPGKAPKLLIYLASNLESGVPSRFSGSGSGTDFTLTISSLQPEDFATYYCQQNIEDPLTFGGGTKVEIKR	binds	–
mAb127-HC+14-Hu-LC (antibody, human IgG4 S228P, kappa, V domains shown) VH: QVQLVQSGAEVKKPGASVKVSCKASGYTFTSEWMNWVRQAPGQGLEWMGQIFPALGSTNYNEMYEGRVTMTTDTSTSTAYMELRSLRSDDTAVYYCARGIGNYALDAMDYWGQGTLVTVSS VL: DIVLTQSPASLAVSPGQRATITCRASESVDNYGNSFMNWYQQKPGQPPKPLIYFASNLESGVPARFSGSGSRTDFTLTINPVEADDTANYYCQQNNEAPPTFGQGTKVEIKR	binds	–
5E7-Hu (antibody, human IgG4 S228P, kappa, V domains shown) VH: EVQLVESGGGLVKPGGSLRLSCAASGFTFSDDYMAWFRQAPGKRLEWVASISHGGDYIYYADNLKGRFTISRDNAKNSLYLQMNSLRAEDTAVYFCSRDRRSIDYWGQGTLVTVSS VL: DIQMTQSPSSLSASVGDRVTITCRASQDISNYLSWYQQKPGKTIKLLIYYTSRLHSGVPSRFSGSGSGTDYTFTISSLQPEDIATYFCQQGKTLPYTFGQGTKVEIKR	–	no binding
